Earlier results as cited in patent publication US20120128784A1, “COMPOSITION CONTAINING BEE VENOM AS AN ACTIVE INGREDIENT FOR PREVENTING AND TREATING ACNE” (Dong Sung Pharm. Co., Ltd., priority 2009, published 2012).
Read-outs that look alike come from different tables or passages of the source. At least one compound was matched to its structure with a doubt left. Some of these results come from one statement about several compounds together.

System: edema

Row | Compound | inhibition of edema (injected into arthritis patients) | inhibition of edema (treatment with a protease inhibitor and dolapin)
1 | CC(C)C[C@@H]1NC(=O)[C@H](C)NC(=O)[C@H]([C@@H](C)O)NC(=O)[C@H](CCC(=O)O)NC(=O)[C@@H]2CCCN2C(=O)[C@H](C)NC(=O)[C@H](CCCCN)NC(=O)[C@@H]2CSSC[C@@H](C(=O)N[C@@H](CCC(N)=O)C(=O)N[C@@H](CCC(N)=O)C(=O)N[C@@H](Cc3cnc[nH]3)C(N)=O)NC(=O)[C@H](CCCNC(=N)N)NC(=O)[C@H](CCCNC(=N)N)NC(=O)[C@H](C)NC(=O)[C@H](CSSC[C@H](N)C(=O)N[C@@H](CC(N)=O)C(=O)N2)NC1=O [apamin] | edema was significantly inhibited | 
2 | dolapin |  | 15-40%
